These are yes or no findings as the source states them, for the method shown. In cells and extracts the contact can be indirect. Binding calls can cover weak binding; strength is not graded here.
Biological target: T1, human FBXL3 (human) (UniProt Q9UKT7)
T1 sequence: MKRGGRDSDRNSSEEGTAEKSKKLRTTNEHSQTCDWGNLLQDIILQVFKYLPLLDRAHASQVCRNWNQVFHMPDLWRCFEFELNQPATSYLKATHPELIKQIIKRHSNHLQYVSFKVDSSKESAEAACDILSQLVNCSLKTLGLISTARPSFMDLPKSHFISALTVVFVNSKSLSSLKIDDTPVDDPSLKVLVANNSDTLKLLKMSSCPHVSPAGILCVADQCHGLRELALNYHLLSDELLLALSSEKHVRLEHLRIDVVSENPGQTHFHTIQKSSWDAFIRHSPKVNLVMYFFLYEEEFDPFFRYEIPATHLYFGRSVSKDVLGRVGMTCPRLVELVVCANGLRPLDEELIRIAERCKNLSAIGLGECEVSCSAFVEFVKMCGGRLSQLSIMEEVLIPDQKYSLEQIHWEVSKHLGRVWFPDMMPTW
Assay: co-IP

| Substance | binding |
| --- | --- |
| human CRY2 D347H | binds |
| human CRY2 D467N | binds |
| human CRY2 R460C | binds |
| human CRY2 S436R | binds |
| human CRY2 wildtype | binds |
